Results: PMC6588547
These are yes or no findings as the source states them, for the method shown. For some of these results: Binding can be weak; no strength is given. Sequences can lack the tags named with a protein.

T1: SLENDER RICE 1 (SLR1), full length, fused with GAL4 BD (rice (Oryza sativa L. spp. Japonica)) (UniProt Q7G7J6)
T1 sequence: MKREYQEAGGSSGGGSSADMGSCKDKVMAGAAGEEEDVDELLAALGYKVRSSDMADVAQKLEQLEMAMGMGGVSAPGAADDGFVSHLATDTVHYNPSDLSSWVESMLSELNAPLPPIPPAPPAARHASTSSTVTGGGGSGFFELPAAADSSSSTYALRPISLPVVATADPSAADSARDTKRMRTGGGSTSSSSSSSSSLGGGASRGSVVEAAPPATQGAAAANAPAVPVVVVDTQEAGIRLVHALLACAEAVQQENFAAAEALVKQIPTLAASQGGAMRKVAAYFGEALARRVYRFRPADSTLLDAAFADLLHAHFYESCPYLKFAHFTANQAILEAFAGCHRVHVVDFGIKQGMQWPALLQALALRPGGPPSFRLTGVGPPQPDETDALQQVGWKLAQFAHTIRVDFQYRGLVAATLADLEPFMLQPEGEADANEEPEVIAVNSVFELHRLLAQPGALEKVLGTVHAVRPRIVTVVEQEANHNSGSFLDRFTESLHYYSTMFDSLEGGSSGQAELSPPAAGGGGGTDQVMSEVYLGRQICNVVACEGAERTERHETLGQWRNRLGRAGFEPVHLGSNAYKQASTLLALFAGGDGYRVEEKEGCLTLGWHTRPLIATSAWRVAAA


Legend:
Assay in all cases: two-hybrid; SLR1 and its truncations fused with GAL4 BD (pGBKT7), MOC1 and its truncations fused with GAL4 AD (pGADT7); tested on SD/-Trp/-Leu/-His/-Ade/X-α-Gal medium
[1] = target: T1, SLENDER RICE 1 (SLR1), full length, fused with GAL4 BD (rice (Oryza sativa L. spp. Japonica))
[2] = target: SLR1 truncation lacking the DELLA motif, fused with GAL4 BD (rice (Oryza sativa L. spp. Japonica))
[3] = target: SLR1 truncation lacking the TVHYNP motif, fused with GAL4 BD (rice (Oryza sativa L. spp. Japonica))
[4] = target: SLR1 with the entire GRAS domain deleted, fused with GAL4 BD (rice (Oryza sativa L. spp. Japonica))
[5] = target: SLR1 truncation lacking the polyS/T/V motif, fused with GAL4 BD (rice (Oryza sativa L. spp. Japonica))

Row | Molecule | binding [1] | further results
1 | MOC1 truncation lacking the SAW motif, fused with GAL4 AD (rice (Oryza sativa L. spp. Japonica)) (domain or fragment) | binds | 
2 | MOC1 truncation lacking the VHIID motif, fused with GAL4 AD (rice (Oryza sativa L. spp. Japonica)) (domain or fragment) | binds | 
3 | MOC1 truncation lacking the LHRII motif, fused with GAL4 AD (rice (Oryza sativa L. spp. Japonica)) (domain or fragment) | binds | 
4 | MOC1 truncation lacking the PFYRE motif, fused with GAL4 AD (rice (Oryza sativa L. spp. Japonica)) (domain or fragment) | binds | 
5 | MONOCULM 1 (MOC1), full length, fused with GAL4 AD (protein, UniProt Q84MM9 1-441) MLRSLHSSSSSDTDNNSGGCKNNGGGGGEAAAAVEGGGDQRAVAAAAPSTRDLLLACADLLQRGDLPAARRAAEIVLAAAASPRGDAADRLAYHFARALALRVDAKAGHGHVVVGGGAARPASSGAYLAFNQIAPFLRFAHLTANQAILEAVDGARRVHILDLDAVHGVQWPPLLQAIAERADPALGPPEVRVTGAGADRDTLLRTGNRLRAFARSIHLPFHFTPLLLSCATTAPHHVAGTSTGAAAAASTAAAATGLEFHPDETLAVNCVMFLHNLAGHDELAAFLKWVKAMSPAVVTIAEREAGGGGGGGDHIDDLPRRVGVAMDHYSAVFEALEATVPPGSRERLAVEQEVLGREIEAAVGPSGGRWWRGIERWGGAARAAGFAARPLSAFAVSQARLLLRLHYPSEGYLVQEARGACFLGWQTRPLLSVSAWQPSSS |  | binding [2]: binds; binding [3]: binds; binding [4]: no binding; binding [5]: binds

Continued, in another order:

Row | binding [1] | Molecule | further results
6 | binds | MOC1 truncation lacking the LHRI motif, fused with GAL4 AD (rice (Oryza sativa L. spp. Japonica)) (domain or fragment) | 
7 | no binding | MOC1 with the entire GRAS domain deleted, fused with GAL4 AD (rice (Oryza sativa L. spp. Japonica)) (domain or fragment) | 
